This assay has as its system B6D2F1 mice, nontumored toxicity test, survival. Put plainly: NCI In Vivo Anticancer Drug Screen. Data for tumor model Nontumored Animals (Toxicity Test) in B6D2F1 (BDF1) mice.
Where [1] appears, read: dose: 16.0 mg/kg/injection, schedule: Q01DX009 (ip), vehicle: water.
Setting [2] is: dose: 32.0 mg/kg/injection, schedule: Q01DX009 (ip), vehicle: water.
Where [3] appears, read: dose: 64.0 mg/kg/injection, schedule: Q01DX009 (ip), vehicle: water.
Setting [4] is: dose: 128.0 mg/kg/injection, schedule: Q01DX009 (ip), vehicle: water.
Setting [5] is: dose: 256.0 mg/kg/injection, schedule: Q01DX009 (ip), vehicle: water.

The text below walks through data of PubChem BioAssay AID186 (DTP/NCI, 2004).

SMILES strings stand for the structures. Shown are survivors of the treated group in tumour-free mice. Counts of survivors are from the toxicity check (mostly the fifth day) where no day follows; animals may have died later. Schedules are NCI's codes, taken here to give the interval after Q, in days (D) or hours (H), and the number of doses after X. Some doses were run more than once; the values are given in rising order.

For the molecule `C=CN1CCCC1=O`, the survivor count is 10 of 10 (dose: 1.9 grams/kg/injection, schedule: Q01DX001 (iv), vehicle: saline); 10 of 10 (dose: 1.9 grams/kg/injection, schedule: Q01DX005 (iv), vehicle: saline); 10 of 10 (dose: 1.9 grams/kg/injection, schedule: Q04DX003 (iv), vehicle: saline); 10 of 10 (dose: 3.8 grams/kg/injection, schedule: Q01DX001 (ip), vehicle: saline); 10 of 10 (dose: 3.8 grams/kg/injection, schedule: Q01DX001 (iv), vehicle: saline); 10 of 10 (dose: 3.8 grams/kg/injection, schedule: Q01DX005 (ip), vehicle: saline). For the same molecule, the survivor count (dose: 3.8 grams/kg/injection, schedule: Q01DX005 (iv), vehicle: saline) is on record as 10 of 10; the survivor count (dose: 3.8 grams/kg/injection, schedule: Q01DX009 (ip), vehicle: saline) is 10 of 10; the survivor count (dose: 3.8 grams/kg/injection, schedule: Q03HX008 (ip), vehicle: saline) is reported as 10 of 10; the survivor count (dose: 3.8 grams/kg/injection, schedule: Q03HX016 (ip), vehicle: saline) is reported as 10 of 10; the survivor count (dose: 3.8 grams/kg/injection, schedule: Q03HX024 (ip), vehicle: saline) was 10 of 10; the survivor count (dose: 3.8 grams/kg/injection, schedule: Q04DX003 (ip), vehicle: saline) is given as 10 of 10. Further, the survivor count by setting is: (dose: 3.8 grams/kg/injection, schedule: Q04DX003 (iv), vehicle: saline) 10 of 10; (dose: 3.8 grams/kg/injection, schedule: Q08DX002 (ip), vehicle: saline) 10 of 10; (dose: 7.5 grams/kg/injection, schedule: Q01DX001 (ip), vehicle: saline) 10 of 10; (dose: 7.5 grams/kg/injection, schedule: Q01DX001 (iv), vehicle: saline) 10 of 10; (dose: 7.5 grams/kg/injection, schedule: Q01DX005 (ip), vehicle: saline) 10 of 10; (dose: 7.5 grams/kg/injection, schedule: Q01DX005 (iv), vehicle: saline) 10 of 10. Besides, the survivor count is 10 of 10 (dose: 7.5 grams/kg/injection, schedule: Q01DX009 (ip), vehicle: saline); 10 of 10 (dose: 7.5 grams/kg/injection, schedule: Q03HX008 (ip), vehicle: saline); 10 of 10 (dose: 7.5 grams/kg/injection, schedule: Q03HX016 (ip), vehicle: saline); 10 of 10 (dose: 7.5 grams/kg/injection, schedule: Q03HX024 (ip), vehicle: saline); 10 of 10 (dose: 7.5 grams/kg/injection, schedule: Q04DX003 (ip), vehicle: saline); 10 of 10 (dose: 7.5 grams/kg/injection, schedule: Q04DX003 (iv), vehicle: saline). For the same molecule, the survivor count (dose: 7.5 grams/kg/injection, schedule: Q08DX002 (ip), vehicle: saline) is recorded as 10 of 10.
For the molecule `COc1cc2cc3c4cc(OC)c(OC)cc4cc[n+]3c(C)c2cc1OC` (tested in a mixture with another compound), the survivor count (dose: 8.0 mg/kg/injection, schedule: Q01DX009 (ip), vehicle: Klucel (hydroxypropylcellulose) (HPC)) was 8 of 8; the survivor count (dose: 8.0 mg/kg/injection, schedule: Q01DX009 (ip), vehicle: clinical formulation) was 8 of 8; the survivor count (dose: 8.0 mg/kg/injection, schedule: Q01DX009 (ip), vehicle: water) was 7 of 8; the survivor count (dose: 16.0 mg/kg/injection, schedule: Q01DX009 (ip), vehicle: Klucel (hydroxypropylcellulose) (HPC)) is 8 of 8; the survivor count (dose: 16.0 mg/kg/injection, schedule: Q01DX009 (ip), vehicle: clinical formulation) was 8 of 8; the survivor count under setting [1] is 7 of 8. Moreover, the survivor count (dose: 32.0 mg/kg/injection, schedule: Q01DX009 (ip), vehicle: Klucel (hydroxypropylcellulose) (HPC)) is 8 of 8; the survivor count (dose: 32.0 mg/kg/injection, schedule: Q01DX009 (ip), vehicle: clinical formulation) is 7 of 8; the survivor count under setting [2] is 7 of 8; the survivor count (dose: 64.0 mg/kg/injection, schedule: Q01DX009 (ip), vehicle: Klucel (hydroxypropylcellulose) (HPC)) is on record as 6 of 8; the survivor count (dose: 64.0 mg/kg/injection, schedule: Q01DX009 (ip), vehicle: clinical formulation) is listed as 7 of 8; the survivor count under setting [3] is recorded as 6 of 8. Moreover, the survivor count is reported as 6 of 8 (dose: 128.0 mg/kg/injection, schedule: Q01DX009 (ip), vehicle: Klucel (hydroxypropylcellulose) (HPC)); 2 of 8 (dose: 128.0 mg/kg/injection, schedule: Q01DX009 (ip), vehicle: clinical formulation); 7 of 8 under setting [4]; 0 of 8 (dose: 256.0 mg/kg/injection, schedule: Q01DX009 (ip), vehicle: Klucel (hydroxypropylcellulose) (HPC)); 0 of 8 (dose: 256.0 mg/kg/injection, schedule: Q01DX009 (ip), vehicle: clinical formulation); 0 of 8 under setting [5].
Consider `O=C[C@@H](CO)O[C@H](C=O)n1cnc2c(=O)[nH]cnc21`, for which the survivor count is given as 10 of 10 (dose: 125.0 mg/kg/injection, schedule: Q01DX009 (ip), vehicle: saline with Tween-80); 10 of 10 (dose: 150.0 mg/kg/injection, schedule: Q01DX009 (ip), vehicle: saline with Tween-80); 10 of 10 (dose: 175.0 mg/kg/injection, schedule: Q01DX009 (ip), vehicle: saline with Tween-80); 10 of 10 (dose: 200.0 mg/kg/injection, schedule: Q01DX009 (ip), vehicle: saline with Tween-80); 10 of 10 (dose: 200.0 mg/kg/injection, schedule: Q04DX003 (ip), vehicle: saline with Tween-80); 10 of 10 (dose: 225.0 mg/kg/injection, schedule: Q01DX009 (ip), vehicle: saline with Tween-80). Further, the survivor count (dose: 250.0 mg/kg/injection, schedule: Q04DX003 (ip), vehicle: saline with Tween-80) is reported as 10 of 10; the survivor count (dose: 300.0 mg/kg/injection, schedule: Q04DX003 (ip), vehicle: saline with Tween-80) was 10 of 10; the survivor count (dose: 350.0 mg/kg/injection, schedule: Q04DX003 (ip), vehicle: saline with Tween-80) is on record as 10 of 10; the survivor count (dose: 400.0 mg/kg/injection, schedule: Q04DX003 (ip), vehicle: saline with Tween-80) is reported as 10 of 10.
For the molecule `CC(=O)NC(CS)C(=O)O` (configuration not stated), the survivor count reads like this: (dose: 250.0 mg/kg/injection, schedule: Q01DX001 (ip), vehicle: saline) 8 of 8; (dose: 500.0 mg/kg/injection, schedule: Q01DX001 (ip), vehicle: saline) 8 of 8; (dose: 600.0 mg/kg/injection, schedule: Q01DX001 (ip), vehicle: saline) 6 of 6; (dose: 600.0 mg/kg/injection, schedule: Q01DX015 (ip), vehicle: saline) 6 of 6; (dose: 600.0 mg/kg/injection, schedule: Q07DX003 (ip), vehicle: saline) 6 of 6; (dose: 750.0 mg/kg/injection, schedule: Q01DX001 (ip), vehicle: saline) 8 of 8. Moreover, the survivor count was 6 of 6 and 8 of 8 (dose: 1000.0 mg/kg/injection, schedule: Q01DX001 (ip), vehicle: saline); 6 of 6 (dose: 1000.0 mg/kg/injection, schedule: Q01DX015 (ip), vehicle: saline); 6 of 6 (dose: 1000.0 mg/kg/injection, schedule: Q07DX003 (ip), vehicle: saline); 6 of 6 and 8 of 8 (dose: 1500.0 mg/kg/injection, schedule: Q01DX001 (ip), vehicle: saline); 7 of 8 and 8 of 8 (dose: 2000.0 mg/kg/injection, schedule: Q01DX001 (ip), vehicle: saline).
Take `CN(C)CCN(Cc1ccccc1)c1ccccn1`: the survivor count runs as follows: (dose: 16.0 mg/kg/injection, schedule: Q01DX001 (sc), vehicle: saline) 6 of 6; (dose: 20.0 mg/kg/injection, schedule: Q01DX001 (sc), vehicle: saline) 6 of 6; (dose: 24.0 mg/kg/injection, schedule: Q01DX001 (sc), vehicle: saline) 6 of 6; (dose: 25.0 mg/kg/injection, schedule: Q01DX001 (ip), vehicle: saline) 8 of 8; (dose: 30.0 mg/kg/injection, schedule: Q01DX001 (sc), vehicle: saline) 6 of 6; (dose: 36.0 mg/kg/injection, schedule: Q01DX001 (ip), vehicle: saline) 8 of 8.
Consider `O=c1[nH]c(=O)n(C2CC(O)C(CO)O2)cc1C(F)(F)F` (configuration not stated), for which the survivor count is 6 of 6 (dose: 8.0 mg/kg/injection, schedule: Q03HX024 (ip), vehicle: water); 6 of 6 under setting [1]; 6 of 6 (dose: 16.0 mg/kg/injection, schedule: Q03HX024 (ip), vehicle: water); 6 of 6 under setting [2]; 6 of 6 (dose: 32.0 mg/kg/injection, schedule: Q03HX024 (ip), vehicle: water); 6 of 6 under setting [3]. Moreover, the survivor count is given as 6 of 6 (dose: 64.0 mg/kg/injection, schedule: Q03HX016 (ip), vehicle: water); 6 of 6 (dose: 64.0 mg/kg/injection, schedule: Q03HX024 (ip), vehicle: water); 6 of 6 under setting [4]; 6 of 6 (dose: 128.0 mg/kg/injection, schedule: Q03HX016 (ip), vehicle: water); 6 of 6 under setting [5]; 6 of 6 (dose: 256.0 mg/kg/injection, schedule: Q03HX016 (ip), vehicle: water). The survivor count runs as follows: (dose: 256.0 mg/kg/injection, schedule: Q04DX003 (ip), vehicle: water) 6 of 6; (dose: 512.0 mg/kg/injection, schedule: Q03HX016 (ip), vehicle: water) 6 of 6; (dose: 512.0 mg/kg/injection, schedule: Q04DX003 (ip), vehicle: water) 6 of 6; (dose: 1024.0 mg/kg/injection, schedule: Q04DX003 (ip), vehicle: water) 6 of 6; (dose: 2048.0 mg/kg/injection, schedule: Q04DX003 (ip), vehicle: water) 6 of 6.
